Data from PubChem BioAssay AID504834 (National Center for Advancing Translational Sciences (NCATS), 2011).
Screen size: about 320,000 compounds; about 22,000 (6.9%) were called active. Inconclusive results, whose numbers are uncertain, are shown with a selection of clear calls. Calls follow the shape of the dose curve; as a rule, active = well fitted inhibition curve with a large enough effect; inconclusive = small, poorly fitted or top-dose-only effect, or another doubt; inactive = no such curve, though single readings can be large or run the other way. Potencies of inconclusive entries are doubtful fits and often do not repeat.

Test: Primary qHTS for delayed death inhibitors of the malarial parasite plastid, 96 hour incubation
Settings: P. falciparum luciferase reporter growth; series mostly up to 28.7 µM
Procedure, shortened: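 Two-generation exposure (96 h) targets delayed-death phenotype. Reporter parasites carrying integrated firefly luciferase, in red cells at 2% hematocrit and 0.05% parasitemia final, kept at 37 C, 5% CO2; luminescence loss indicates inhibition.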
Potency is read from the fitted curve at half-maximal effect.

SMILES | Potency
COc1cccc(NC(=O)COC(=O)/C=C/c2c(C)nn(-c3ccccc3)c2C)c1 | inactive
O=C(Cc1ccc(NS(=O)(=O)c2ccc(F)cc2)cc1)NCc1ccccc1 | inconclusive: 14.7 µM [inhibitor, partial curve]
COc1ccc([N+](=O)[O-])cc1NC(=O)C(C)Sc1ccccc1 (centres undefined) | inconclusive: 14.7 µM [inhibitor, partial curve, poor fit]
Cc1nnc(SCC(=O)O)o1 | inconclusive: 2.33 µM [inhibitor, partial curve, poor fit]
CC(=O)N1c2ccc(S(=O)(=O)N3CCC(C(=O)NCc4ccccc4)CC3)cc2CC1C (centres undefined) | inactive
COc1ccc(CCNC(=O)C2CCN(S(=O)(=O)c3ccc4nc5c(c(C(=O)O)c4c3)CCCC5)CC2)cc1OC | active: 9.28 µM
CC(C)OCCCNc1ncc2c(n1)CC(c1cccs1)CC2=O (centres undefined) | active: 13.1 µM
Cc1ccc(NC(=O)Cc2noc3ccccc23)c(C)c1 | inactive
COC1=C(C)C(O)=C(C(=O)/C=C/c2ccccc2)C(=O)C1(C)C | inconclusive: 18.5 µM [inhibitor, single point]
CCOc1ccc(C(=O)Nc2cc(C)ccn2)cc1 | inactive
CCC(C)NC(=O)CNC(=S)N(Cc1ccccc1F)C1CCCCC1 (centres undefined) | inconclusive: 10.4 µM [inhibitor, single point]
Cn1c(C(=O)N2CCN(C(=O)c3ccco3)CC2)cc2c(=O)n3ccccc3nc21 | active: 4.65 µM
CCOC(=O)Cn1c(=O)c2c(nc3n2CCCN3CCc2ccccc2)n(C)c1=O | inconclusive: 2.08 µM [inhibitor, partial curve]
O=C(O)/C(=C\c1ccc(Cl)cc1)c1ccc(S(=O)(=O)N2CCCC2)s1 | inconclusive: 18.5 µM [inhibitor, single point]
CCOC(=O)[C@H]1[C@H]2COc3ccc(Cl)cc3[C@@H]2N2C(=O)CN(Cc3ccc(F)cc3)C(=O)[C@@]12C | inconclusive: 18.5 µM [inhibitor, single point]
COc1ccc(Cc2nnc(CCc3ccccc3)s2)cc1 | inconclusive: 9.28 µM [inhibitor, single point]
CCCCCc1cc(=O)oc2c(C(CCN(CC)CC)c3cc(OC)c(OC)c(OC)c3)c(OC)cc(OC)c12 (centres undefined) | active: 3.7 µM
COc1ccc(OC)c(NC(=O)CSc2nnnn2-c2ccccc2F)c1 | inconclusive: 11.7 µM [inhibitor, partial curve]
Cc1nc2ccccc2c(C)c1CC(=O)N(C)CC(=O)Nc1cccc(F)c1 | inconclusive: 11.7 µM [inhibitor, single point]
COc1cc2[nH]c(=O)n(Cc3ccc(C(=O)NC4CCCC4)cc3)c(=O)c2cc1OC | inconclusive: 10.4 µM [inhibitor, single point]
CCOCCCNC(=S)Nc1ccc2nc(N3CCOCC3)cc(C)c2c1 | active: 14.7 µM
Cc1ccc(C)c(NC(=O)C(Sc2nc3ccc(C)cc3[nH]2)c2ccccc2)c1 (centres undefined) | inconclusive: 18.5 µM [inhibitor, single point]

SMILES | Potency
COc1ccccc1CN1CC(C(=O)NCCn2nc(C)cc2C)CCC1=O (centres undefined) | inconclusive: 11.7 µM [inhibitor, single point]
CC1CCCCN1C(=O)Cn1cc(C=O)c2ccccc21 (centres undefined) | active: 13.1 µM
Cc1ccccc1COc1ccc(/C(O)=C2/C(=O)C(=O)N(CCCn3ccnc3)C2c2ccco2)cc1 (centres undefined) | inconclusive: 18.5 µM [inhibitor, single point]
CCn1c(SCC(=O)NCc2ccco2)nc2c(c1=O)SC(C)C2 (centres undefined) | inconclusive: 1.85 µM [inhibitor, partial curve, poor fit]
COc1ccc(Cc2nc(-c3cccnc3)no2)cc1OC | inconclusive: 1.31 µM [inhibitor, partial curve, poor fit]
O=C(O)COc1ccccc1/C=C1\SC(=S)N(c2cccnc2)C1=O | inconclusive: 11.7 µM [inhibitor, single point]
COc1cc(OC)cc(C(=O)NC2CCN(CC(=O)Nc3cccc4ccccc34)CC2)c1 | inconclusive: 2.08 µM [inhibitor, partial curve, poor fit]
CC(C)CCN1CCN(Cc2nc(-c3ccc(F)cc3)cs2)CC1CCO (centres undefined) | active: 11.7 µM
CC(C)c1nnc(NC(=O)CCC(=O)N2CCN(c3cccc(Cl)c3)CC2)s1 | inconclusive: 10.4 µM [inhibitor, single point]
O=C(/C=C/c1ccccc1)OCCN1C(=O)c2ccccc2C1=O | inactive
CC1CCN(C2=NC(=O)/C(=C/c3cn[nH]c3-c3ccccc3)S2)CC1 | active: 13.1 µM
O=C(NCC1CCCO1)Nc1ccccc1 (centres undefined) | inactive
Cc1ccc(NC(=O)C(=O)NN=C2CCCC2)cc1C | inactive
CN1CCc2c(sc3nc(SCC(=O)NCc4ccco4)n(-c4ccccc4)c(=O)c23)C1 | active: 0.928 µM
CCc1ccc(NC(=O)C2(C)Cc3ccccc3C(=O)O2)cc1 (centres undefined) | inconclusive: 18.5 µM [inhibitor, single point]
CCn1c(CNc2ccc(OC)cc2)nnc1SCC(=O)N1CCCc2ccccc21 | inactive
C/C(CC(=O)Nc1ccc(N(C)C)cc1)=N\NC(=O)c1ccccc1F | inconclusive: 11.7 µM [inhibitor, single point]
COc1ccc(CCNC(=O)C2CC(=O)N(c3ccc(Br)cc3)C2)cc1OC (centres undefined) | inconclusive: 18.5 µM [inhibitor, single point]
COc1ccc(F)cc1C(=O)C1CCCN(Cc2ccc3c(c2)OCCO3)C1 (centres undefined) | inconclusive: 13.1 µM [inhibitor, single point]
Cc1cc(C)c2oc(C(=O)Nc3ccc(S(=O)(=O)Nc4nccs4)cc3)cc(=O)c2c1 | inconclusive: 13.1 µM [inhibitor, single point]
C=CCN1C(=O)CN=C1Nc1cc(C)cc(C)c1 | inconclusive: 1.65 µM [inhibitor, partial curve, poor fit]
CCOc1ccc(C(=O)NC(=S)NCc2cccnc2)cc1 | active: 10.4 µM

Two entries from above, as comma-separated lines:
SMILES,Potency
CC(C)c1nnc(NC(=O)CCC(=O)N2CCN(c3cccc(Cl)c3)CC2)s1,"inconclusive: 10.4 µM [inhibitor, single point]"
O=C(/C=C/c1ccccc1)OCCN1C(=O)c2ccccc2C1=O,inactive
